Test system: human skeletal myotubes
Test: Quantitative lipidomic analyses and TAG biosynthesis pathway modeling
Format: cell-based
Conditions: for K1, contribution of de novo glycerolphosphate biosynthetic pathway to TAG pool / K2, contribution of monoacylglycerol reacylation pathway to TAG pool / K3, contribution of pathway K3 to TAG pool: 10 μM SBI-477, 24 hours
Method: Quantitative lipidomic analyses was performed on human skeletal myotubes exposed to bovine albumin serum (BSA) or 100 μM oleate in the presence of DMSO vehicle (white bars) or 10 μM SBI-477 (black bars) for 24 hours.
Primary human myotubes were treated with BSA or 100 μM oleate with 10 μM SBI-477 or a vehicle control for 24 hours. The cells were added to […] in an Eppendorf tube and homogenized for 1 minute using a disposable soft tissue homogenizer. A 25 μL aliquot was used to determine the protein content (BCA protein assay kit, Thermo Scientific, Rockford, Ill.). The remaining homogenate was accurately transferred into a disposable glass culture test tube, and a mixture of lipid internal standards was added prior to lipid extraction for quantification of all reported lipid species. Lipid extraction was performed by using a modified Bligh and Dyer procedure as described previously (Wang and Han, 2014). Each lipid extract was resuspended into a volume of 500 μL of chloroform/methanol (1:1, v/v) per mg of protein and flushed with nitrogen, capped, and stored at −20° C. for lipid analysis. For ESI direct infusion analysis, lipid extract was further diluted to a final concentration of ˜500 fmol/μL, and the mass spectrometric analysis was performed on a QqQ mass spectrometer (Thermo TSQ VANTAGE, San Jose, Calif.) equipped with an automated nanospray device (TriVersa NanoMate, Advion Bioscience Ltd., Ithaca, N.Y.).
Intracellular TAG can be formed through reacylation of DAG species generated from several pathways including a de novo glycerolphosphate biosynthetic pathway that involves dephosphorylation of phosphatidic acid (DAGPA), reacylation of monoacylglycerol (DAGMAG), and to a lesser extent, hydrolysis of phosphatidyl inositol (DAGPI). To explore the effects of SBI-477 on specific TAG biosynthesis pathways, a bioinformatics lipidomics modeling approach was used as previously described (Han, et al., Lipid Res. 2013; 54(4):1023-1032). This approach uses the individual TAG ion profile, as determined by mass spectrometry, to predict the relative contribution of each pathway to the overall cellular TAG pool. Experiments were conducted in skeletal myocytes in the absence and presence of oleate loading.

## COc1ccc(-c2csc(NC(=O)c3ccc(OCC(=O)N4CCOCC4)c(OC)c3)n2)cc1 [Cpd. 7, 3-methoxy-N-(4-(4-methoxyphenyl)thiazol-2-yl)-4-(2-morpholino-2-oxoethoxy)benzamide]
BSA
  K1, contribution of de novo glycerolphosphate biosynthetic pathway to TAG pool: 0.50 ± 0.08
  K2, contribution of monoacylglycerol reacylation pathway to TAG pool: 0.44 ± 0.10
  K3, contribution of pathway K3 to TAG pool: 0.05 ± 0.03
Oleate
  K1, contribution of de novo glycerolphosphate biosynthetic pathway to TAG pool: 0.36 ± 0.03
  K2, contribution of monoacylglycerol reacylation pathway to TAG pool: 0.63 ± 0.03
  K3, contribution of pathway K3 to TAG pool: 0.01 ± 0.02
Absence of exogenous oleic acid
  Increase of monoacylglycerol reacylation pathway (K2) contribution: 10 fold

Reference: patent publication US11028061B2, “Modulators of myocyte lipid accumulation and insulin resistance and methods of use thereof” (Sanford Burnham Prebys Medical Discovery Institute, priority 2015, dated 2021)
